In patent US20060063149A1:
These are yes or no findings as the source states them, for the method shown. For some of these results: Binding seen in cells or lysates may run through a third protein. Some binding calls cover weakened binding; strength is not graded here. For some of these results: Tags and fused reporters may be left off the sequences shown.

T1: Escherichia coli Ivy protein (Escherichia coli) (UniProt P0AD59)
T1 sequence: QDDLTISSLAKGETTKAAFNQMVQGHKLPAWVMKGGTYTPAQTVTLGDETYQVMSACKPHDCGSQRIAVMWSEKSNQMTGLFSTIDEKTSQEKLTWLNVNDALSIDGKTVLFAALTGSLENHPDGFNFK

B1: Human Lysozyme-Horseradish Peroxidase conjugate (enzyme)
chain: KVFERCELARTLKRLGMDGYRGISLANWMCLAKWESGYNTRATNYNAGDRSTDYGIFQINSRYWCNDGKTPGAVNACHLSCSALLQDNIADAVACAKRVVRDPQGIRAWVAWRNRCQNRDVRQYVQGCGV
modifications: chemically conjugated to activated horseradish peroxidase (POD)
B2: Tp17-HIS (protein)
chain: VSCTTVCPHAGKAKAEKVECALKGGIFRGTLPAADCPGIDTTVTFNADGTAQKVELALEKKSAPSPLTYRGTWMVREDGIVELSLVSSEQSKAPHEKELYELIDSNSVRYMGAPGAGKPSKEMAPFYVLKKTKK

Legend:
[1] = target: sAPPα (human) (UniProt P05067); assay: dot blot, 10 µg spotted, POD-labeled human lysozyme diluted 1/1000
[2] = target: sAPPα (human) (UniProt P05067); assay: dot blot, 10 µg spotted, POD-HuLYS diluted 1/1000
[3] = target: T1, Escherichia coli Ivy protein (Escherichia coli); assay: HuLYS-POD protein overlay assay on blotted cell extract
[4] = target: chicken egg white lysozyme (chicken) (UniProt P00698); assay: co-purification on nickel affinity chromatography; 14 kDa protein identified as chicken lysozyme by N-terminal sequencing

Binder	binding [1]	binding [2]	binding [3]	binding [4]
B1	binds	binds	binds	
B2				binds
